Results from patent publication US20030157554A1 (published 2003).

Assays:
[1] = target: T1, S100B-1 (human, UniProt P04271 1-92); assay: Y2H, baits tested against each other
T1 construct: Full-length bait; also called full length S100B
T1 sequence (looked up): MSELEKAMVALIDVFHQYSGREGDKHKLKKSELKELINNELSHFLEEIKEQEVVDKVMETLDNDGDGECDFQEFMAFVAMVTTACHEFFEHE

[2] = target: T2, S100B-2 (human, UniProt P04271 1-62, limits assumed); assay: Y2H, baits tested against each other
T2 construct: Truncated bait; also called truncated S100B
T2 sequence (looked up): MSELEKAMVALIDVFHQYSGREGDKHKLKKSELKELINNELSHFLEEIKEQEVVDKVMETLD

[3] = target: T3, S100A1-1 (human, UniProt P23297 1-94); assay: Y2H, baits tested against each other
T3 construct: Full-length bait; also called full length S100A1
T3 sequence (looked up): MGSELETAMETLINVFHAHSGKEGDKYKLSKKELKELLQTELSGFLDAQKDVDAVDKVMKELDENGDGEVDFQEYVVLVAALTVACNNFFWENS

[4] = target: the molecule itself; assay: Y2H, baits tested against each other
[5] = target: T4, ATPase (ATP6N1) (Genbank ID: u73006) (human, UniProt Q93050 1-300, limits assumed); assay: Y2H 1x1 mating, binder AD fusion, target BD fusion
T4 construct: range 1-~300; Prey from liver library; end of the fragment approximate; also called Vacuolar-type H(+) ATPase; ATP6N17

[6] = target: T5, Synphilin (Genbank ID: AF076929) (human, UniProt Q9Y6H5 335-660, limits assumed); assay: Y2H 1x1 mating, binder AD fusion, target BD fusion
T5 construct: range 335-~660; Prey from kidney library; end of the fragment approximate; also called Synphilin I; Synphilin 1
T5 sequence (looked up): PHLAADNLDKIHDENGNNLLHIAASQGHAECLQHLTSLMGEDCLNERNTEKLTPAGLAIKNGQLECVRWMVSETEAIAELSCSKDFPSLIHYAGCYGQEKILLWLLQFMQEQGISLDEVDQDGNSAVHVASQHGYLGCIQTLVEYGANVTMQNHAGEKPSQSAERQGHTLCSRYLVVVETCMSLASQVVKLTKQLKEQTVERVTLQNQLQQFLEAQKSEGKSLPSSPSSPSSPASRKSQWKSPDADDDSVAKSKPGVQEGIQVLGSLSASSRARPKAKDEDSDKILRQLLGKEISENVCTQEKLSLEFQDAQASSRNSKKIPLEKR

[7] = target: T6, S100A9 (Genbank ID: M26311) (human, UniProt P06702 1-114); assay: Y2H 1x1 mating, binder AD fusion, target BD fusion
T6 construct: range 1-114; Prey from liver and muscle libraries
T6 sequence (looked up): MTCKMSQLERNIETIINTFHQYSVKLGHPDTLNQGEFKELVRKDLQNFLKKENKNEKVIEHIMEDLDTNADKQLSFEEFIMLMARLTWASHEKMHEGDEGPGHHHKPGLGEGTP

[8] = target: S100A6 (Genbank ID: M14300) (human, UniProt P06703 1-90); assay: Y2H 1x1 mating, binder AD fusion, target BD fusion

Measured: binding result

B1: S100A1-2 (other, human, UniProt P23297 1-62, looked up)
chain: MGSELETAMETLINVFHAHSGKEGDKYKLSKKELKELLQTELSGFLDAQKDVDAVDKVMKEL
notes: Truncated bait; also called truncated S100A1
no binding: [1] | [2] | [3] | [4] | [5] | [6] | [7] | [8]
